Reference: article PMC10374705
No constants are given. Whether binding was seen depends on the method and setting. Binding seen in cells or lysates may run through a third protein. Some entries that bind do so weakly or less than the wild type.

Chains of the proteins cited; added tags and fusions are not shown.
UniProt Q8R4B8: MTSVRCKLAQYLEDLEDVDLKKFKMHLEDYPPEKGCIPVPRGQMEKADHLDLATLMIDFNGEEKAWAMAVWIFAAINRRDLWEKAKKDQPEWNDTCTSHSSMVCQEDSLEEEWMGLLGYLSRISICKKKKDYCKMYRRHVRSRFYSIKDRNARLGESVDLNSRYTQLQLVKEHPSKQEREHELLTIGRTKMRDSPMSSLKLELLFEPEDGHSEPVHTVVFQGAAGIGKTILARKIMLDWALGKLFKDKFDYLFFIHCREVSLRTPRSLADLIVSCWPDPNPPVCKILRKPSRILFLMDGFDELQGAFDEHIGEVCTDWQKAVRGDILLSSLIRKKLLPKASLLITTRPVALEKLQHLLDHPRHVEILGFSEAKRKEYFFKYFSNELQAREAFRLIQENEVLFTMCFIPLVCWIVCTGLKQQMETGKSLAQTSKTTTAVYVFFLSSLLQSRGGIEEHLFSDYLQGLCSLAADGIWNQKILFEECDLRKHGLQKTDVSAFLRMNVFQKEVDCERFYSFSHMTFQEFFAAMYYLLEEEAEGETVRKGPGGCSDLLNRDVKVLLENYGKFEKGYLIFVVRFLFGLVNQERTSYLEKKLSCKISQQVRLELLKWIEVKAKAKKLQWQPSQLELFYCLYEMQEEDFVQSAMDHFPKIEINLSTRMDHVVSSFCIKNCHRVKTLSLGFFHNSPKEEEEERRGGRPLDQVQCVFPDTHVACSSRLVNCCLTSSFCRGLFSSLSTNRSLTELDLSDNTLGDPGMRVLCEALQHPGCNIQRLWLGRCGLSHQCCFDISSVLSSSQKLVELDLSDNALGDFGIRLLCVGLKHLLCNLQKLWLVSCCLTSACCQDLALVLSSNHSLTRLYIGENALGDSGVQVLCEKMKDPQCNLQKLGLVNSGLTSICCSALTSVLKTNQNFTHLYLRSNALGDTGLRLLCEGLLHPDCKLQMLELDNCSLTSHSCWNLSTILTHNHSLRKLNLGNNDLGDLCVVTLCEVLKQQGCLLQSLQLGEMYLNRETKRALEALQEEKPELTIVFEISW

Columns and labels:
[1] = target: T1, apoptosis-associated speck-like protein (ASC) (mouse (endogenous in MASMCs)) (UniProt Q9EPB4); assay: co-IP; anti-ASC or anti-NLRP3 on magnetic beads, incubated with VSMC lysate 30 min at room temperature; blots with anti-NLRP3, anti-Caspase-1, anti-ASC; cells transfected with pcDNA3.1, with or without TNF-α (25 ng/ml) for 24 h
T1 sequence: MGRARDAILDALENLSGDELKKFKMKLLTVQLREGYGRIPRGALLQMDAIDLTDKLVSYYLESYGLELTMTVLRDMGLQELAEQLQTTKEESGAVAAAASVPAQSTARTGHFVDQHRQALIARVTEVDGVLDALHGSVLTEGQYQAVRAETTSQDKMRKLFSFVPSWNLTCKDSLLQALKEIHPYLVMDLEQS

[2] = target: Nucleotide-binding oligomerization domain-like receptor protein 3 (NLRP3) (mouse (endogenous in MASMCs)) (UniProt Q8R4B8); assay: as above
[3] = target: T1, apoptosis-associated speck-like protein (ASC) (mouse (endogenous in MASMCs)); assay: condition: only circACTA2 overexpression in the cells; co-IP; anti-ASC on magnetic beads, incubated with lysate of VSMCs overexpressing circACTA2 and treated with TNF-α (25 ng/ml) for 24 h; blots with anti-NLRP3, anti-Caspase-1
[4] = target: T2, NF-κB p50 subunit (mouse (endogenous in MASMCs)), P25799; assay: co-IP; anti-p50 on magnetic beads, incubated with lysate of VSMCs transfected with different concentrations of circACTA2-expressing plasmid; blot with anti-p65; settings: remark: other sources report otherwise
T2 chain: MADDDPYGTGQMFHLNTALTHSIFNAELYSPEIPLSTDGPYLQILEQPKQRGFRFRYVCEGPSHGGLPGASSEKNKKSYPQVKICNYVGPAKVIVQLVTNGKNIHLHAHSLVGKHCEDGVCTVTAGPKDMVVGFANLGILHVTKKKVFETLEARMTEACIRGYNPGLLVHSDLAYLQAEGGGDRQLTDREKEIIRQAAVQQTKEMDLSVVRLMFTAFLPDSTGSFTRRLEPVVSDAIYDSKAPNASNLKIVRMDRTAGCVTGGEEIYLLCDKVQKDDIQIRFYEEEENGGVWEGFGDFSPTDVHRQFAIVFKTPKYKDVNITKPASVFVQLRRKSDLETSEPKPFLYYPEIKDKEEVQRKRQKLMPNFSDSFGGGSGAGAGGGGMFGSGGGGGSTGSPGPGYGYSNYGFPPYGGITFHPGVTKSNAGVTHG

Binder	binding [1]	binding [2]	binding [3]	binding [4]
caspase-1 (enzyme, UniProt P29452 1-402) MADKILRAKRKQFINSVSIGTINGLLDELLEKRVLNQEEMDKIKLANITAMDKARDLCDHVSKKGPQASQIFITYICNEDCYLAGILELQSAPSAETFVATEDSKGGHPSSSETKEEQNKEDGTFPGLTGTLKFCPLEKAQKLWKENPSEIYPIMNTTTRTRLALIICNTEFQHLSPRVGAQVDLREMKLLLEDLGYTVKVKENLTALEMVKEVKEFAACPEHKTSDSTFLVFMSHGIQEGICGTTYSNEVSDILKVDTIFQMMNTLKCPSLKDKPKVIIIQACRGEKQGVVLLKDSVRDSEEDFLTDAIFEDDGIKKAHIEKDFIAFCSSTPDNVSWRHPVRGSLFIESLIKHMKEYAWSCDLEDIFRKVRFSFEQPEFRLQMPTADRVTLTKRFYLFPGH	binds	binds	no binding	
NF-κB p65 subunit, Q04207 1-549 (protein) MDDLFPLIFPSEPAQASGPYVEIIEQPKQRGMRFRYKCEGRSAGSIPGERSTDTTKTHPTIKINGYTGPGTVRISLVTKDPPHRPHPHELVGKDCRDGYYEADLCPDRSIHSFQNLGIQCVKKRDLEQAISQRIQTNNNPFHVPIEEQRGDYDLNAVRLCFQVTVRDPAGRPLLLTPVLSHPIFDNRAPNTAELKICRVNRNSGSCLGGDEIFLLCDKVQKEDIEVYFTGPGWEARGSFSQADVHRQVAIVFRTPPYADPSLQAPVRVSMQLRRPSDRELSEPMEFQYLPDTDDRHRIEEKRKRTYETFKSIMKKSPFNGPTEPRPPTRRIAVPTRNSTSVPKPAPQPYTFPASLSTINFDEFSPMLLPSGQISNQALALAPSSAPVLAQTMVPSSAMVPLAQPPAPAPVLTPGPPQSLSAPVPKSTQAGEGTLSEALLHLQFDADEDLGALLGNSTDPGVFTDLASVDNSEFQQLLNQGVSMSHSTAEPMLMEYPEAITRLVTGSQRPPDPAPTPLGTSGLPNGLSGDEDFSSIADMDFSALLSQISS				binds
